In article PMC7001992:

Experiments:
[1] = target: Myc-tagged eukaryotic initiation factor 4G (Myc-eIF4G) (Drosophila); assay: co-IP; S2R+ cells, 2 mg protein lysate incubated 2 h with Myc-Trap or GFP-Trap beads; in the absence or presence of 50 U RNase T1; immunoblot
[2] = target: GFP-tagged IGF-II mRNA-binding protein (GFP-Imp) (Drosophila); assay: as above
[3] = target: eukaryotic initiation factor 4G (eIF4G), endogenous in ovaries (Drosophila (endogenous in ovaries)); assay: co-IP; ovary extracts of flies expressing Venus-Mkrn1, IP buffer (1 X PBS, 0.4% Triton X-100, 1 mM MgCl2, 5% glycerol); IP with anti-pAbp Fab antibody or α-eIF4G rabbit antibody overnight at 4°C, protein A agarose; RNase A when present; western blot

Row | binding [1] | binding [2] | binding [3] | Binder
1 | binds | binds |  | tagged Mkrn1^RING (protein, UniProt Q9VP20 1-386) MSAVTSSDTAISGMALGRSQTICRYYVRGICRFGELCRFSHDLSRGRPECEEQVATDVLPKPSTSSSSTIGSRSASISSQQRNWANAPVFVPSQKRYTAHEQSEFETTVDPEAVMEAQAGASYDTLAPGVSWAEVVGGPSSLNKEDYGEENSSCAWGEFSAYPIHMELCEMCDQYCLHPTDQVQRRSHNRECLQQHEQAMELSFAIARSKDKTCGICFDTIMEKAGREKRFGILPNCNEIFCLECIRTWRQAKQFENKITRACPECRVCSDFVCPSAFWMETKEEKDKLLNDYRAALGAKDCKYFKKGEGKCPFGNKCFYKHALPNGDIVDVGLPKRTRKLQSQNEIIDLLDIYLWDYVDRRDYHWLEMISSDITSSESSDYSDED
2 |  |  | binds | Venus-tagged Mkrn1 (Venus-Mkrn1) (protein, UniProt Q9VP20 1-386) MSAVTSSDTAISGMALGRSQTICRYYVRGICRFGELCRFSHDLSRGRPECEEQVATDVLPKPSTSSSSTIGSRSASISSQQRNWANAPVFVPSQKRYTAHEQSEFETTVDPEAVMEAQAGASYDTLAPGVSWAEVVGGPSSLNKEDYGEENSSCAWGEFSAYPIHMELCEMCDQYCLHPTDQVQRRSHNRECLQQHEQAMELSFAIARSKDKTCGICFDTIMEKAGREKRFGILPNCNHIFCLECIRTWRQAKQFENKITRACPECRVCSDFVCPSAFWMETKEEKDKLLNDYRAALGAKDCKYFKKGEGKCPFGNKCFYKHALPNGDIVDVGLPKRTRKLQSQNEIIDLLDIYLWDYVDRRDYHWLEMISSDITSSESSDYSDED

Results are given in words; binding and its absence hold for the method and conditions named. Binding seen in cells or lysates may run through a third protein. A result given as binding can be weak or reduced; the word gives no strength. Sequences can lack the tags named with a protein.
